{"source": "PubChem BioAssay AID504467", "about": "(National Center for Advancing Translational Sciences (NCATS), 2011)", "note": "Hit rate of the full screen: of about 330,000 compounds, about 7,700 (2.3%) were called active. Inconclusive results, whose numbers are uncertain, are shown with a selection of clear calls. The call rests on the fitted dose curve; in most records, active means well fitted inhibition curve with a large enough effect; inconclusive means small, poorly fitted or top-dose-only effect, or effect the other way; inactive means flat fitted curve, though single readings scatter. Potencies of inconclusive entries are doubtful fits and often do not repeat. On the % scale 0 is the no-effect control and ±100 the full control effect; potency means the concentration at half of the fitted maximal effect."}
{"assay": "qHTS screen for small molecules that inhibit ELG1-dependent DNA repair in human embryonic kidney (HEK293T) cells expressing luciferase-tagged ELG1; further: nearly all actives have a fitted effect of over 55% in size", "conditions": "HEK293T ELG1-luciferase reporter, luminescence, 16 h, DNA damage induced by 5-fluorouridine; activity change, negative = inhibition: at 46.1 µM (top of the series)", "how_it_was_run": "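Cells (2,000 per well) received 5-fluorouridine plus test compound or DMSO and were incubated 16 hr at 37 °C, 5% CO2. Luciferase activity was read by luminescence 30 min after ONE-Glo addition; signal suppression marked inhibition of damage-induced ELG1 function.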"}
{"compound": "COc1ccc(-n2c(C)cc(C(=O)COC(=O)c3ccc(O)cc3O)c2C)cc1", "Potency": "inconclusive: 2.31 µM [inhibitor, single point]"}
{"compound": "CCOC(=O)C(=O)NNc1ccccc1C", "activity change, negative = inhibition": "inactive: -0.93%"}
{"compound": "CCNC(=O)c1ccccc1-c1nc(-c2ccccc2)no1", "Potency": "inconclusive: 1.03 µM [activator, partial curve, poor fit]"}
{"compound": "CCOC(=O)c1ccc(NC(=O)CSc2nc(NC(=O)c3ccccc3)c3c(C)c(C)oc3n2)cc1", "Potency": "inconclusive: 20.6 µM [inhibitor, single point]"}
{"compound": "N/C(=N\\OC(=O)CC1CCCCC1)c1ccc(Cl)cc1", "Potency": "inconclusive: 20.6 µM [activator, single point]"}
{"compound": "CCN(C(=O)COc1ncnc2ccc(Br)cc12)C1CCS(=O)(=O)C1", "note": "(centres undefined)", "Potency": "inconclusive: 3.66 µM [inhibitor, partial curve, poor fit]"}
{"compound": "Cc1c(Cl)cccc1-n1c(SCC(=O)N2CCC(C(=O)O)CC2)nnc1-c1ccncc1", "activity change, negative = inhibition": "inactive: 10.5%"}
{"compound": "CCc1cc(=O)oc2cc(C)cc(OCC(=O)C(C)(C)C)c12", "Potency": "inconclusive: 29.1 µM [inhibitor, single point]"}
{"compound": "NNc1ncnc2sc3c(c12)CCC3", "Potency": "inconclusive: 20.6 µM [inhibitor, partial curve]"}
{"compound": "CSc1cccc(NC(=O)c2sc3nc4n(c(=O)c3c2C)CCC4)c1", "Potency": "inconclusive: 2.59 µM [activator, partial curve, poor fit]"}
{"compound": "CCN(c1ccccc1)S(=O)(=O)c1cccc(C(=O)O)c1", "activity change, negative = inhibition": "inactive: 0.0915%"}
{"compound": "C#CCOCCOCCOCCNc1nc(N2CCOCC2)nc(N2CCN(C(=O)[C@H](CCCCN)n3cc(CN)nn3)CC2)n1", "Potency": "inconclusive: 20.6 µM [activator, partial curve, poor fit]"}
{"compound": "Cc1ccc(C(=O)CCC(=O)NC2=NCCS2)cc1", "activity change, negative = inhibition": "inactive: 19.8%"}
{"compound": "CCOC(=O)c1ccc(NC(=S)N(CCN2CCCCCC2)Cc2cccs2)cc1", "Potency": "inconclusive: 29.1 µM [inhibitor, partial curve, poor fit]"}
{"compound": "COc1ccc(N(C)S(=O)(=O)c2cccc(C(=O)NC3CCC(C)CC3)c2)cc1", "note": "(centres undefined)", "Potency": "inconclusive: 23.1 µM [inhibitor, single point]"}
{"compound": "O=C(Nc1cccc2ncccc12)c1ccccc1F", "activity change, negative = inhibition": "inactive: -6.58%"}
{"compound": "CCOC(=O)c1c(C)nc2cc(C)ccn12", "Potency": "inconclusive: 29.1 µM [activator, single point]"}
{"compound": "COc1ccc(Cn2cccc(NC(=O)Nc3cccc(C#N)c3)c2=O)cc1", "Potency": "inconclusive: 20.6 µM [inhibitor, single point]"}
{"compound": "COc1ccc(-c2nc(-c3ccccc3)no2)c(OC)c1", "Potency": "inconclusive: 0.092 µM [activator, full curve]"}
{"compound": "CC(C)(C)NS(=O)(=O)c1ccc(NC(=O)Cc2ccccc2[N+](=O)[O-])cc1", "activity change, negative = inhibition": "inactive: 0.801%"}
{"compound": "COc1ccc(C(=O)OCc2cc(C)ccc2C)cc1S(=O)(=O)N1CCCC1", "Potency": "inconclusive: 18.3 µM [inhibitor, partial curve]"}
{"compound": "COc1ccc(CCNC(=O)C(=O)NCC2OCCN2S(=O)(=O)c2ccc3c(c2)OCCO3)cc1", "note": "(centres undefined)", "Potency": "inconclusive: 23.1 µM [activator, partial curve]"}
{"compound": "N#Cc1c(Nc2cccc(F)c2)sc2c(O)cc(=O)[nH]c12", "activity change, negative = inhibition": "inactive: -0.354%"}
{"compound": "Cc1csc(NC(=O)Nc2ccccc2[N+](=O)[O-])n1", "Potency": "inconclusive: 2.59 µM [activator, partial curve]"}
{"compound": "Cc1ccc(S(=O)(=O)/C=C2\\NC(=O)CS2)cc1", "activity change, negative = inhibition": "inactive: 5.71%"}
{"compound": "CCOC(=O)C1CCN(c2nc3ccccc3nc2C(C#N)C(=O)OC(C)C)CC1", "note": "(centres undefined)", "activity change, negative = inhibition": "inactive: 3.49%"}
{"compound": "COC(=O)Nc1ccc(S(=O)(=O)N2CCN(C)CC2)cc1", "activity change, negative = inhibition": "inactive: -2.22%"}
{"compound": "COc1ccc(NC(=O)CN(C)CC(=O)c2c(C)[nH]c3ccccc23)cc1", "Potency": "inconclusive: 12.6 µM [inhibitor, partial curve, poor fit]"}
{"compound": "Cc1c(C(=O)Nc2ccccc2F)sc2nc3n(c(=O)c12)CCC3", "Potency": "inconclusive: 9.2 µM [activator, partial curve]"}
{"compound": "C/C=C/C(=O)OCc1csc(CC(=O)Nc2ccccc2C)n1", "Potency": "inconclusive: 20.6 µM [activator, single point]"}
{"compound": "O=C(Nc1ccc2c(c1)OCO2)c1sc2cc(Cl)ccc2c1Cl", "Potency": "inconclusive: 16.4 µM [activator, partial curve]"}
{"compound": "CCCN(CCC)S(=O)(=O)c1ccc(C(=O)N2CCCc3ccccc32)cc1", "Potency": "inconclusive: 23.1 µM [inhibitor, single point]"}
{"compound": "Cc1nn(Cc2ccccc2)c(C)c1/C=N/NC(=O)c1ccccc1O", "Potency": "inconclusive: 23.1 µM [activator, single point]"}
{"compound": "C/C(=N\\Nc1cccc2cccnc12)c1ccc[nH]1", "Potency": "inconclusive: 2.59 µM [activator, full curve]"}
{"compound": "Cc1ccc(-c2cc(C(=O)Nc3sc4c(c3C(=O)NCc3ccco3)CCC4)[nH]n2)c(O)c1", "Potency": "inconclusive: 4.11 µM [inhibitor, partial curve, poor fit]"}
{"compound": "Cc1cc(C)c(S(=O)(=O)Nc2ccccc2C(=O)N2CCOCC2)c(C)c1", "activity change, negative = inhibition": "inactive: -3.77%"}
{"compound": "COc1cccc(CNS(=O)(=O)c2c(C(=O)N3CCCC3)c(C)n(C)c2C)c1", "Potency": "inconclusive: 32.6 µM [activator, partial curve, poor fit]"}
{"compound": "CSc1ncccc1C(=O)OC(C)C(=O)Nc1cccc(S(=O)(=O)N2CCOCC2)c1", "note": "(centres undefined)", "Potency": "inconclusive: 18.3 µM [inhibitor, single point]"}
{"compound": "c1ccc2nc(SCc3cn4ccccc4n3)cnc2c1", "Potency": "inconclusive: 6.51 µM [activator, partial curve]"}
{"compound": "COc1cc(OC)cc(C(=O)N[C@H](C(=O)OCC(=O)Nc2ccc(C(C)C)cc2)C(C)C)c1", "activity change, negative = inhibition": "inactive: 1.04%"}
{"compound": "O=C(N/N=C/C(Br)=C/c1ccccc1)c1cnccn1", "activity change, negative = inhibition": "inactive: 0%"}
{"compound": "N#C/C(=C(/O)COC(=O)COc1cccc(Br)c1)c1nc2ccccc2[nH]1", "Potency": "inconclusive: 29.1 µM [activator, partial curve, poor fit]"}
{"compound": "CCCCOC(=O)c1ccc(NC(=S)NC(=O)c2c(Cl)cnn2C)cc1", "activity change, negative = inhibition": "inactive: 1.62%"}
{"compound": "Cc1ccc(Cn2ncc3c(N4CCN(c5ccccc5C)CC4)ncnc32)cc1", "Potency": "inconclusive: 13 µM [inhibitor, partial curve]"}
